Reference: PubChem BioAssay AID1458 (National Center for Advancing Translational Sciences (NCATS), 2008)
Hit rate of the full screen: of about 210,000 compounds, about 5,900 (2.8%) were called active. Inconclusive results (about 5%) are left out. The call rests on the fitted dose curve; in most records, active means well fitted activation curve with a large enough effect; inconclusive means small, poorly fitted or top-dose-only effect; inactive means no such curve, though single readings can be large or run the other way. This is a selection; strong and weak results do not stand in their true shares. Entries without a call were filed so in the source.

Assay: qHTS Assay for Enhancers of SMN2 Splice Variant Expression; further: nearly all actives have a fitted effect of over 55% in size; on activity change, positive = activation: % of control where 0% means no effect
Conditions: HEK293 SMN2-luciferase splicing reporter, luminescence, 30-36 h; activity change, positive = activation: at 46.1 µM (top of the series) unless noted
How it was run: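 qHTS luciferase splicing reporter: luminescence rises when SMN2 exon 7 is included in transfected HEK293 cells. Compound exposure lasted 30-36 h at 37C, with 4.5 mM final sodium butyrate as control, followed by a ONE-Glo read.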
Potency means the concentration at half of the fitted maximal effect.

Compound	activity change, positive = activation	Potency
CCc1ccc2c(c1)C1(NN=C(c3ccc(C)cc3)S1)C(=O)N2 (stereo not given)	inactive: -45.1%	
CCC(=O)N1CCN(c2ccc(NC(=O)c3ccco3)cc2)CC1	39.6%	
O=C(OCCN1C(=O)c2ccccc2C1=O)c1cc(=O)[nH]c2ccccc12	34.3%	
CCOc1ccccc1N(CC(=O)Nc1ccccc1C(=O)NCc1ccco1)S(C)(=O)=O	35.1%	
COc1cc(S(=O)(=O)NCC2COCCO2)ccc1-n1cnnn1 (stereo not given)	25.3%	
Nc1nc(CSc2ccccc2)nc(N2CCCCC2)n1		active: 20 µM
CCCn1c(C)cc(C(=O)Cn2nnc3ccccc3c2=O)c1C		active: 12.6 µM
O=C(CCC(=O)c1cccs1)c1cccs1	236%	
CN(c1ccc(C(=O)NCCSC(C)(C)C)cc1)S(C)(=O)=O		active: 11.2 µM
O=C(N/N=C/c1cc([N+](=O)[O-])ccc1O)C12CC3CC(CC(C3)C1)C2	inactive: -93.4%	
Cc1cc2cc(CNC(=S)Nc3ccc(OC(F)F)cc3)ccc2n1C	inactive: -30.1%	
O=C(Nc1cccnc1)c1ccc(NC(=O)c2ccco2)cc1	31.3%	
COc1ccccc1-n1nc(C(=O)Nc2ccc3c(c2)OCO3)c2ccccc2c1=O	36.3%	
Cc1ccc(-c2nn3c(C)nnc3s2)cc1NC(=O)c1ccc(-c2cccc(Cl)c2)o1	inactive: -31.4%	
O=C(O)c1cccc(N/N=C/c2cccs2)c1		active: 0.141 µM
Cc1cccc(C)c1N(CC(=O)N1CCN(C)CC1)S(C)(=O)=O	46.4%	
CCOc1cc2sc(N3CCC(C(=O)Nc4cc(C)cc(C)c4)CC3)nc2cc1Br	37.4%	
Cc1ccc(NC(=O)C(=O)NCc2ccco2)cc1		active: 17.8 µM
COc1cc(/C=N/O)ccc1OCc1ccc(Cl)cc1		active: 6.31 µM
C=CCN(CC=C)c1cnn(-c2nc3ccccc3[nH]2)c(=O)c1Cl	87.3%	
O=C(Cn1c(CO)nc2ccccc21)Nc1cc(C(F)(F)F)ccc1N1CCOCC1	43.2%	
Cc1ccc(C2=Nc3ccccc3N=C(C(Cl)Cl)C2)cc1	inactive: -67.1%	
CCCCNC(=O)CN(c1cc(C(F)(F)F)ccc1Cl)S(C)(=O)=O	21.1%	
CC(CC(=O)Nc1ccc2c(c1)OCCO2)c1ccccc1 (stereo not given)		active: 11.2 µM

Compound	activity change, positive = activation	Potency
O=C(CSc1nnc(-c2ccncc2)n1Cc1ccco1)c1ccc(Cl)cc1	14.6%	
CCC1C/C(=C\c2cccnc2)C(=O)/C(=C/c2cccnc2)C1 (stereo not given)	inactive: -84.7%	
COc1ccc(OC)c(C2C(C(C)=O)=C(O)C(=O)N2CCC(=O)O)c1 (stereo not given)	39.9%	
CCOC(=O)c1cc(NC(=O)c2ccccc2)c(=O)n2c1oc1ccccc12	inactive: -39.9%	
COc1ccc2nc(NC(=O)c3nc(SC(C)C)ncc3Cl)sc2c1	62%	
Cc1ccc(C(=O)N2CCN(c3ccc(NC(=O)c4ccc(Br)o4)cc3)CC2)cc1	inactive: -86.7%	
CC(C)(C)OC(=O)N/N=C\c1cccnc1	82.5%	
C=CCn1cccc(C(=O)Nc2ccc(OC)cc2)c1=O	48.3%	
O=C(Nc1ccccc1)Nc1ccc(F)c([N+](=O)[O-])c1	inactive: -46.9%	
CN(C)c1ccc(NC2=C(Cl)C(=O)c3ccccc3C2=O)cc1	inactive: -82.6%	
CN(C(=O)c1cccc(C#N)c1)c1nnc(C2CCOC2)s1 (stereo not given)	30.2%	
O=C(Nc1ccc(Cl)cc1)C1CCC(=O)N1Cc1ccccc1Cl (stereo not given)	-20.9%	
CCc1ccc(N2CC(C(=O)Nc3ccc(C)c(S(=O)(=O)N4CCOCC4)c3)CC2=O)cc1 (stereo not given)	-31.3%	
Cn1c(=O)c2[nH]c(N3CCOCC3)nc2n(-c2ccccc2)c1=O	31.2%	
CCN(c1ccccc1)S(=O)(=O)c1ccc(C(=O)Nc2nnc(C3CC3)o2)cc1	inactive: -40.8%	
CC(C)CCC(C)NC(=O)c1ccc2nccnc2c1 (stereo not given)	34%	
COc1ccc(/C=C/C(=O)Nc2cccc(C(C)=O)c2)cc1		active: 11.2 µM
O=C(c1cccc(F)c1)N1CCC[C@@]2(CCN(C(c3ccccc3)c3ccccc3)C2)C1	inactive: -71.6%	
CCC(CC)C(=O)Nc1cccc(C(=O)N2CCCC2)c1	35.1%	
COc1ccc(CNc2nc(-c3cccnc3)nn2C(=O)c2ccco2)cc1	70.9%	
CC1CCN(CC(=O)Nc2ccccc2-c2ccccc2)CC1	-36.2%	
CCOC(=O)C(C)Oc1ccc(C2NC(=O)NC(C)=C2C(C)=O)cc1Br (stereo not given)	64.1%	
CCOc1cc(C(=S)N2CCOCC2)ccc1OS(=O)(=O)c1ccccc1	inactive: -33.7%	

Part of the list above, set out differently:
Compound | activity change, positive = activation | Potency
CCN(c1ccccc1)S(=O)(=O)c1ccc(C(=O)Nc2nnc(C3CC3)o2)cc1 | inactive: -40.8% | 
CC(C)CCC(C)NC(=O)c1ccc2nccnc2c1 (stereo not given) | 34% | 
COc1ccc(/C=C/C(=O)Nc2cccc(C(C)=O)c2)cc1 |  | active: 11.2 µM
O=C(c1cccc(F)c1)N1CCC[C@@]2(CCN(C(c3ccccc3)c3ccccc3)C2)C1 | inactive: -71.6% | 
CCC(CC)C(=O)Nc1cccc(C(=O)N2CCCC2)c1 | 35.1% | 
COc1ccc(CNc2nc(-c3cccnc3)nn2C(=O)c2ccco2)cc1 | 70.9% | 

Carrying on:

Compound	activity change, positive = activation	Potency
Cc1c(Cl)cccc1NC(=S)NCc1cccn1C	4.32%	
Cc1ccc(-c2nc(C#N)c(NCCN3CCCCC3)o2)cc1	21.9%	
CC1=C(c2ccc(C)c(C)c2)S(=O)(=O)N=C1N1CCC(C(=O)NCCc2ccc(Cl)cc2)CC1	33.6%	
Cc1ccc2nc(SC(C)C(=O)N3CCOCC3)[nH]c2c1 (stereo not given)		active: 20 µM
CC(C)c1onc(C(=O)NCc2ccccc2)c1[N+](=O)[O-]	42.9%	
Cc1ccc(-c2nnc(SCC(=O)N3CCCC3)o2)cc1		active: 14.1 µM
COc1ccc(Nc2c(-c3ccco3)nc3ccc(C)cn23)cc1	-35.9%	
CCOC(=O)c1ccc2nc(NC(=O)C(C)C)sc2c1		active: 11.2 µM
CCOC(=O)C1CCCN(Cc2cc(=O)oc3cc(C)ccc23)C1 (stereo not given)	210%	
Cc1cc(C(F)(F)F)c(C#N)c(SCC(=O)Nc2nc3ccccc3s2)n1	inactive: -87.9%	
c1ccc(-c2nnc(-c3ccco3)o2)cc1	174%	
C=CCOC(=O)c1[nH]c2c(c1C)C(=O)CC(c1cc(OC)c(OC)c(OC)c1)C2 (stereo not given)	-89.6%	
C/C(=N\Nc1ccc([N+](=O)[O-])cc1)c1ccco1	179%	
O=C(Nc1nc2c(s1)CCCC2)c1cccnc1	32.3%	
CCOC(=O)N1CCN(S(=O)(=O)c2ccc(OCC(=O)OC)cc2)CC1	36.3%	
CCOC(=O)c1cc(OC(=O)c2cccs2)n(-c2ccccc2)n1	37.2%	
Cc1ccccc1NC(=O)C(=Cc1ccc(C(=O)O)cc1)C(=O)Nc1ccccc1C	inactive: -52.7%	
O=C(CC1C(=O)NCCN1C(=O)c1ccc(F)cc1)OCc1ccccc1 (stereo not given)	56%	
Cc1occc1C(=O)NCc1ccccc1F	21.8%	
Oc1oc(-c2ccccc2Br)nc1/C=N/c1ccccn1	45.8%	
O=C(NCCCN1CCOCC1)c1ccccc1-c1ccccc1	48%	
O=C(Nc1ccc2c(c1)CCC2)c1c(F)cccc1Cl		active: 14.1 µM
